No constants are given. Whether binding was seen depends on the method and setting. In cells and extracts the contact can be indirect. These calls come from enrichment with a bait or labelling near it, and not all partners need be listed. A no says only that the protein was not detected with the bait.

Protein sequences, listed by entry. Tags and fused reporters are not part of them. Residues count along the entry.
UniProt Q9NVP2: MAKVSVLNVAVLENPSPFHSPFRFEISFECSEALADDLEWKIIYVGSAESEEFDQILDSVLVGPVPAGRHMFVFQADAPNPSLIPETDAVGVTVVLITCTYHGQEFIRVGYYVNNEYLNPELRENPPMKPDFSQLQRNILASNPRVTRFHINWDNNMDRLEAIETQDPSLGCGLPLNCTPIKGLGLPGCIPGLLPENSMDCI
UniProt Q07021, residues 74-282: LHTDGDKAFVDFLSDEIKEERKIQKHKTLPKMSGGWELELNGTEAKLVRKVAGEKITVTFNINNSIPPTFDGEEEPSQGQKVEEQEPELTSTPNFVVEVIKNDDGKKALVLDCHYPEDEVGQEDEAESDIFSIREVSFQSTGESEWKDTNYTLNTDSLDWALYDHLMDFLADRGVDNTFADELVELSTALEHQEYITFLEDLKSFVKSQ
UniProt O14929: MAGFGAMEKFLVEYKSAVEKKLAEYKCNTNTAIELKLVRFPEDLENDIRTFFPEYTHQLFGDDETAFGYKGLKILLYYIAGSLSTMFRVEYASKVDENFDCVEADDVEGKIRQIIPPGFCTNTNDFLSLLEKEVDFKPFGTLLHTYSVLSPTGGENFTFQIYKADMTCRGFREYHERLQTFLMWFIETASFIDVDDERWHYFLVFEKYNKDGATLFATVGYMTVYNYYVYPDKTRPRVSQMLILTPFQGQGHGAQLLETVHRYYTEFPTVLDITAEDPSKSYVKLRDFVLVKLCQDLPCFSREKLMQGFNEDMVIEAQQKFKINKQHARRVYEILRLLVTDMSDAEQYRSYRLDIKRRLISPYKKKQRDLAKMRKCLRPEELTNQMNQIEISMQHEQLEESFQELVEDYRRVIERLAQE
UniProt P0DMV8: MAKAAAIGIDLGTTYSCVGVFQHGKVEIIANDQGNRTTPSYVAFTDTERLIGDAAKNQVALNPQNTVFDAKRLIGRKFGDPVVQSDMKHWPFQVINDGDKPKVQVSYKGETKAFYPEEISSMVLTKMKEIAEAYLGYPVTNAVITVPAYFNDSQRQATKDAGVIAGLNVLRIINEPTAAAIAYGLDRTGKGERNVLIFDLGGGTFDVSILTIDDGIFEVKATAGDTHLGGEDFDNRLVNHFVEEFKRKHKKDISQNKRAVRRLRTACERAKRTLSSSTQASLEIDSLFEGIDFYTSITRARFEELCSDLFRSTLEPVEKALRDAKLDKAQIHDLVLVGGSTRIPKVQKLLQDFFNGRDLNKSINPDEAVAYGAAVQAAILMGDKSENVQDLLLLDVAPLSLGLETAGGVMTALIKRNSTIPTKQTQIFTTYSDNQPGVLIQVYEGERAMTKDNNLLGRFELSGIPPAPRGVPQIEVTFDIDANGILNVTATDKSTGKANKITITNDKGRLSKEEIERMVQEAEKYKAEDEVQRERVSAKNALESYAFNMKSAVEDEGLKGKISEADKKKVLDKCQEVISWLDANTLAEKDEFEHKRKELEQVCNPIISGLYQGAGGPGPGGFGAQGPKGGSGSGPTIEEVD
UniProt P11021, residues 19-654: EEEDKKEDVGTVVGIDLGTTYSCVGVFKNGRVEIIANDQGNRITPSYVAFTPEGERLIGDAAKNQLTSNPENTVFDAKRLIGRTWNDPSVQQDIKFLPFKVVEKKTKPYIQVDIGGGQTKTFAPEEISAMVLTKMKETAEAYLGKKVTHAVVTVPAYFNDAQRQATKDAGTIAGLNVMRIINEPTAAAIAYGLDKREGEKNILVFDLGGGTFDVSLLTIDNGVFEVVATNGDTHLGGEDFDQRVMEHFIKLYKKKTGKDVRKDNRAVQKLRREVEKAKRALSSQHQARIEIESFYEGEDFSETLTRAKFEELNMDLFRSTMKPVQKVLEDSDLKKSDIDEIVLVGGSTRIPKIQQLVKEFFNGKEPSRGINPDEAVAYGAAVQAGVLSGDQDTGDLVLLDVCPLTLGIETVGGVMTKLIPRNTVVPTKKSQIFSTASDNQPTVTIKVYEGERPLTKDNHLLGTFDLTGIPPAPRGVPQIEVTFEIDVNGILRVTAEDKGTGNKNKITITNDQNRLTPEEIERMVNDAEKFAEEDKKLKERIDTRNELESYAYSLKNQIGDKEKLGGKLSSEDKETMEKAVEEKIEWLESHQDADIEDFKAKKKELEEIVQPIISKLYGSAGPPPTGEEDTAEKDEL
UniProt P11142: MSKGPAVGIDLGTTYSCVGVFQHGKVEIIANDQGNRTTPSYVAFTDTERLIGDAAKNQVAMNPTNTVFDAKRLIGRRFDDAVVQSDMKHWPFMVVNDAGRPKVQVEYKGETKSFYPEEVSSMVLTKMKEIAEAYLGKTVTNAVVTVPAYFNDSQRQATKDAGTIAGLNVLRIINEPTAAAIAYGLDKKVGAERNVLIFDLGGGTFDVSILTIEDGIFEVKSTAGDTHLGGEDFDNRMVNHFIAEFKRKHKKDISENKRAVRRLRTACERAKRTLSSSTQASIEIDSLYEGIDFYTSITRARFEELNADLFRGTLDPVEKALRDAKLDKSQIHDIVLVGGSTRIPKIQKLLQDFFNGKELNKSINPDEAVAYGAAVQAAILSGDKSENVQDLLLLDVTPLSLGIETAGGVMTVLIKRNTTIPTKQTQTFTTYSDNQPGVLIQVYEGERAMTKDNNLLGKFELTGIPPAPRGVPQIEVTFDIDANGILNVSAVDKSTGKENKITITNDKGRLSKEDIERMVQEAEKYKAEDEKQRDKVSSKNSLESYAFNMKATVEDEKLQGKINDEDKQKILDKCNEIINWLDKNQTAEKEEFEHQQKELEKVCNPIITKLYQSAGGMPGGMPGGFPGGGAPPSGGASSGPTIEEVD
UniProt O00410: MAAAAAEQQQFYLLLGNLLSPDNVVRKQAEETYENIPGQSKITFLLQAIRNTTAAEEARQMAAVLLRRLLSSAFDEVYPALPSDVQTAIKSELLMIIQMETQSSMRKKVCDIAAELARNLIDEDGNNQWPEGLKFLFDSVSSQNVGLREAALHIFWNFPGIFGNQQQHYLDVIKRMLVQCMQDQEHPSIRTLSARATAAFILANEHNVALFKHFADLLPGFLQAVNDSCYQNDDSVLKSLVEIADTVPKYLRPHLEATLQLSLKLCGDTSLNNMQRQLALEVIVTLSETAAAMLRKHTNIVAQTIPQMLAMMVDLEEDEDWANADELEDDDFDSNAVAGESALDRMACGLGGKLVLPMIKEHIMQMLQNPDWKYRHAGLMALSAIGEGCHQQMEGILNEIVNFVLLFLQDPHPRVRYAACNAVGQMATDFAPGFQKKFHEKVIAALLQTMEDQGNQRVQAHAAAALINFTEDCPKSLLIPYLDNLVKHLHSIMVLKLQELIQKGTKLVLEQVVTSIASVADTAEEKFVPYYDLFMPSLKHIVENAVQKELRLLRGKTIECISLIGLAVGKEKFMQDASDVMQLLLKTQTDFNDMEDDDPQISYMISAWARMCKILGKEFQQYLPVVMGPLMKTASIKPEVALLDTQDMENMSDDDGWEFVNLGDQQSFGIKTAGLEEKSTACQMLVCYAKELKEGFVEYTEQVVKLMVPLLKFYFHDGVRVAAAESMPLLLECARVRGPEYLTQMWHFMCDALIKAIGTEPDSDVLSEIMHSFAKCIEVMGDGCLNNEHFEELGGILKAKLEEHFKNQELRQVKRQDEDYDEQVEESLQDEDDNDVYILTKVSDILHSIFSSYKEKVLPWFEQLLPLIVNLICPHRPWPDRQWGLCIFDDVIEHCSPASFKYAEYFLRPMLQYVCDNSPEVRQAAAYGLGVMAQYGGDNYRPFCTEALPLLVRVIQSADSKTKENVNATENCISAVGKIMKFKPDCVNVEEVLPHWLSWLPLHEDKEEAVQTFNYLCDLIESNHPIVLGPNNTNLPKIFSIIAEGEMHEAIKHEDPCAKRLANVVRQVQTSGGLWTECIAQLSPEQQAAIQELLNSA

The assay has as its target EGFP-TEV-sNASP (human) (UniProt P49321). The experiment in a line: affinity purification with mass spectrometry; GFP-Trap pull-down of eGFP-sNASP from HEK293-F, TEV release, 1D native gel; bands cut out, in-gel digestion, LC-MS/MS.
ASF1B (from UniProt Q9NVP2 1-202): the binding entry was “binds”.

C1QBP (from UniProt Q07021 74-282): the binding entry is reported as “no binding”.

On to HAT1 (from UniProt O14929 1-419), for which the binding result is reported as “binds”.

For HSPA1A (from UniProt P0DMV8 1-641), the binding result is recorded as “binds”.

Consider HSPA5 (from UniProt P11021 19-654), for which the binding entry is “binds”.

Turning to HSPA8 (from UniProt P11142 1-646), the binding result is reported as “binds”.

With “importin-5 (endogenous) (from UniProt O00410 1-1097)”, the binding entry is on record as “no binding”.

Values taken from paper PMC9560165.
